# Test results reported in the supplement of paper PMC8728848.
# The list shows a part of the results.
# B1: PX9961W-pdi-543-27-543 (Parabacteroides distasonis) (protein)
# chain: EGNATTTSYFLNDQQAIDAIDGLYERFHQEGCYGRELFWEQGAACDIVWGRTRGYNSLATLAYTGDESPLRDVFSRMYSTMSRANWIIQELVKKEKGTTLTAVEKRSLGEAYFSRGWAHYLIAYRYGTDKQGVPFVRYEDFPDDYDNSIPPQQATVMDNYKLIIEDMDKAIAYLPIFESYDADNRGRAHQAAAVAFKAKTYAYWATWDATQWNNVIEMVNQLENNYNRDLAPTFAELFSSDLKDYWNAEYLWTIPSIGGALPGGTEFPGIILENKGWGKYNGWGQMKPSYDIYEEMAKDGKGNDRLVRSILEYNQEFPFFGETRKFWSTSDLEAGFMINKYMDAFKYSDPVGEGAVSANGDWPTVRVNFPIIRFAEMLLFRAEAYLMTGQADKATADINRIRLRSNLTPLTGTATMKDLYHERRCELAFEFTDHLFDLKRWNRSSNADIKTLADKELNAHPRIRRYEDRANPESAFTIIGYEDYTNKNAYQAHMMVFPYPSEEITKSNGQLKQNEGY
# Experiments:
# Assay in all cases: glycan array binding signal (z-score within array); higher = stronger binding
# Settings in all cases: glycan notation: IUPAC condensed, linker removed
# Kdn(a2-3)Gal(b1-4)Glc = biological target: Kdn(a2-3)Gal(b1-4)Glc
# In short: (§1)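 The binding signal is a Z-score computed within each array. Data were drawn from 3228 arrays in the Consortium for Functional Glycomics database, restricted to those with a known protein sequence. Scores were averaged over arrays of the same protein sequence at different concentrations or buffers, and over linkers, and negative values can be taken as non-binding.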
# Kdn(a2-3)Gal(b1-4)GlcNAc = biological target: Kdn(a2-3)Gal(b1-4)GlcNAc
# In short: as §1
# [1] = biological target: Kdn(a2-3)Gal(b1-4)[Fuc(a1-3)]GlcNAc
# In short: as §1
# Kdn(a2-6)Gal(b1-4)GlcNAc = biological target: Kdn(a2-6)Gal(b1-4)GlcNAc
# In short: as §1
# [2] = biological target: Man(a1-2)Man(a1-2)Man(a1-3)Man
# In short: as §1
# [3] = biological target: Man(a1-2)Man(a1-2)Man(a1-6)[Man(a1-3)]Man
# In short: as §1
# Man(a1-2)Man(a1-3)Man = biological target: Man(a1-2)Man(a1-3)Man
# In short: as §1
# [4] = biological target: Man(a1-2)Man(a1-3)[Man(a1-2)Man(a1-6)]Man
# In short: as §1
# [5] = biological target: Man(a1-2)Man(a1-3)[Man(a1-2)Man(a1-6)]Man(a1-6)[Man(a1-2)Man(a1-2)Man(a1-3)]Man
# In short: as §1
# [6] = biological target: Man(a1-2)Man(a1-3)[Man(a1-2)Man(a1-6)]Man(a1-6)[Man(a1-2)Man(a1-2)Man(a1-3)]Man(b1-4)GlcNAc(b1-4)GlcNAc
# In short: as §1
# [7] = biological target: Man(a1-2)Man(a1-3)[Man(a1-6)]Man(a1-6)[Man(a1-2)Man(a1-3)]Man(b1-4)GlcNAc(b1-4)GlcNAc
# In short: as §1
# [8] = biological target: Man(a1-2)Man(a1-6)[Man(a1-3)]Man(a1-6)[Man(a1-2)Man(a1-2)Man(a1-3)]Man
# In short: as §1
# [9] = biological target: Man(a1-2)Man(a1-6)[Man(a1-3)]Man(a1-6)[Man(a1-2)Man(a1-2)Man(a1-3)]Man(b1-4)GlcNAc(b1-4)GlcNAc
# In short: as §1
# Man(a1-3)[Man(a1-6)]Man = biological target: Man(a1-3)[Man(a1-6)]Man
# In short: as §1
# [10] = biological target: Man(a1-3)[Man(a1-6)]Man(a1-6)[Man(a1-2)Man(a1-3)]Man(b1-4)GlcNAc(b1-4)GlcNAc
# In short: as §1
# [11] = biological target: Man(a1-3)[Man(a1-6)]Man(a1-6)[Man(a1-3)]Man
# In short: as §1
# [12] = biological target: Man(a1-3)[Man(a1-6)]Man(a1-6)[Man(a1-3)]Man(b1-4)GlcNAc(b1-4)GlcNAc
# In short: as §1
# [13] = biological target: Man(a1-3)[Man(a1-6)]Man(b1-4)GlcNAc(b1-4)GlcNAc
# In short: as §1
# [14] = biological target: Man(a1-3)[Man(a1-6)]Man(b1-4)GlcNAc(b1-4)[Fuc(a1-6)]GlcNAc
# In short: as §1
# Man(a1-6)Man = biological target: Man(a1-6)Man
# In short: as §1
# Man(b1-4)GlcNAc = biological target: Man(b1-4)GlcNAc
# In short: as §1
# MurNAc(b1-4)GlcNAc = biological target: MurNAc(b1-4)GlcNAc
# In short: as §1
# Neu5Ac(a2-3)Gal = biological target: Neu5Ac(a2-3)Gal
# In short: as §1
# [15] = biological target: Neu5Ac(a2-3)Gal(b1-3)GalNAc
# In short: as §1
# [16] = biological target: Neu5Ac(a2-3)Gal(b1-3)GalNAc(b1-3)Gal(a1-4)Gal(b1-4)Glc
# In short: as §1
# [17] = biological target: Neu5Ac(a2-3)Gal(b1-3)GalNAc(b1-4)[Neu5Ac(a2-3)]Gal(b1-4)Glc
# In short: as §1
# [18] = biological target: Neu5Ac(a2-3)Gal(b1-3)GalNAc(b1-4)[Neu5Ac(a2-8)Neu5Ac(a2-3)]Gal(b1-4)Glc
# In short: as §1
# [19] = biological target: Neu5Ac(a2-3)Gal(b1-3)GalNAc6S
# In short: as §1
# [20] = biological target: Neu5Ac(a2-3)Gal(b1-3)GlcNAc
# In short: as §1
# [21] = biological target: Neu5Ac(a2-3)Gal(b1-3)GlcNAc(b1-2)Man
# In short: as §1
# [22] = biological target: Neu5Ac(a2-3)Gal(b1-3)GlcNAc(b1-2)Man(a1-3)[GlcNAc(b1-4)][Neu5Ac(a2-3)Gal(b1-3)GlcNAc(b1-2)Man(a1-6)]Man(b1-4)GlcNAc(b1-4)GlcNAc
# In short: as §1
# [23] = biological target: Neu5Ac(a2-3)Gal(b1-3)GlcNAc(b1-2)Man(a1-3)[Neu5Ac(a2-3)Gal(b1-3)GlcNAc(b1-2)Man(a1-6)]Man(b1-4)GlcNAc(b1-4)GlcNAc
# In short: as §1
# [24] = biological target: Neu5Ac(a2-3)Gal(b1-3)GlcNAc(b1-3)Gal(b1-3)GlcNAc
# In short: as §1
# [25] = biological target: Neu5Ac(a2-3)Gal(b1-3)GlcNAc(b1-3)Gal(b1-4)GlcNAc
# In short: as §1
# [26] = biological target: Neu5Ac(a2-3)Gal(b1-3)GlcNAc(b1-3)GalNAc
# In short: as §1
# [27] = biological target: Neu5Ac(a2-3)Gal(b1-3)GlcNAc(b1-4)Gal(b1-4)Glc
# In short: as §1
# [28] = biological target: Neu5Ac(a2-3)Gal(b1-3)GlcNAc(b1-6)GalNAc
# In short: as §1
# [29] = biological target: Neu5Ac(a2-3)Gal(b1-3)GlcNAc6S
# In short: as §1
binder,measurement,setting,value
B1,glycan array binding signal (z-score),Kdn(a2-3)Gal(b1-4)Glc,-0.49
same,glycan array binding signal (z-score),Kdn(a2-3)Gal(b1-4)GlcNAc,-0.351
same,glycan array binding signal (z-score),[1],0.488
same,glycan array binding signal (z-score),Kdn(a2-6)Gal(b1-4)GlcNAc,-0.305
same,glycan array binding signal (z-score),[2],-0.734
same,glycan array binding signal (z-score),[3],-0.156
same,glycan array binding signal (z-score),Man(a1-2)Man(a1-3)Man,0.12
same,glycan array binding signal (z-score),[4],-0.438
same,glycan array binding signal (z-score),[5],0.3
same,glycan array binding signal (z-score),[6],-0.01
same,glycan array binding signal (z-score),[7],-1.56
same,glycan array binding signal (z-score),[8],-0.515
same,glycan array binding signal (z-score),[9],-1.01
same,glycan array binding signal (z-score),Man(a1-3)[Man(a1-6)]Man,-0.646
same,glycan array binding signal (z-score),[10],-0.521
same,glycan array binding signal (z-score),[11],1.43
same,glycan array binding signal (z-score),[12],0.256
same,glycan array binding signal (z-score),[13],-0.411
same,glycan array binding signal (z-score),[14],0.622
same,glycan array binding signal (z-score),Man(a1-6)Man,0.415
same,glycan array binding signal (z-score),Man(b1-4)GlcNAc,1.32
same,glycan array binding signal (z-score),MurNAc(b1-4)GlcNAc,-0.849
same,glycan array binding signal (z-score),Neu5Ac(a2-3)Gal,-0.416
same,glycan array binding signal (z-score),[15],-0.431
same,glycan array binding signal (z-score),[16],-0.228
same,glycan array binding signal (z-score),[17],-0.921
same,glycan array binding signal (z-score),[18],-0.589
same,glycan array binding signal (z-score),[19],0.824
same,glycan array binding signal (z-score),[20],-0.608
same,glycan array binding signal (z-score),[21],0.217
same,glycan array binding signal (z-score),[22],-0.555
same,glycan array binding signal (z-score),[23],1.17
same,glycan array binding signal (z-score),[24],-1.56
same,glycan array binding signal (z-score),[25],0.058
same,glycan array binding signal (z-score),[26],0.311
same,glycan array binding signal (z-score),[27],-0.533
same,glycan array binding signal (z-score),[28],0.654
same,glycan array binding signal (z-score),[29],0.968

# 2 entries from above, with tabs:
binder	measurement	setting	value
B1	glycan array binding signal (z-score)	Kdn(a2-3)Gal(b1-4)Glc	-0.49
same	glycan array binding signal (z-score)	[1]	0.488
